Experimental data taken from the supplement of paper PMC10849652.
Some of the results follow.

Sequences of proteins named here, by UniProt entry; tags and fusion partners are left off. A change or cut given only in a name is not applied to a line headed by its entry.
UniProt Q12872: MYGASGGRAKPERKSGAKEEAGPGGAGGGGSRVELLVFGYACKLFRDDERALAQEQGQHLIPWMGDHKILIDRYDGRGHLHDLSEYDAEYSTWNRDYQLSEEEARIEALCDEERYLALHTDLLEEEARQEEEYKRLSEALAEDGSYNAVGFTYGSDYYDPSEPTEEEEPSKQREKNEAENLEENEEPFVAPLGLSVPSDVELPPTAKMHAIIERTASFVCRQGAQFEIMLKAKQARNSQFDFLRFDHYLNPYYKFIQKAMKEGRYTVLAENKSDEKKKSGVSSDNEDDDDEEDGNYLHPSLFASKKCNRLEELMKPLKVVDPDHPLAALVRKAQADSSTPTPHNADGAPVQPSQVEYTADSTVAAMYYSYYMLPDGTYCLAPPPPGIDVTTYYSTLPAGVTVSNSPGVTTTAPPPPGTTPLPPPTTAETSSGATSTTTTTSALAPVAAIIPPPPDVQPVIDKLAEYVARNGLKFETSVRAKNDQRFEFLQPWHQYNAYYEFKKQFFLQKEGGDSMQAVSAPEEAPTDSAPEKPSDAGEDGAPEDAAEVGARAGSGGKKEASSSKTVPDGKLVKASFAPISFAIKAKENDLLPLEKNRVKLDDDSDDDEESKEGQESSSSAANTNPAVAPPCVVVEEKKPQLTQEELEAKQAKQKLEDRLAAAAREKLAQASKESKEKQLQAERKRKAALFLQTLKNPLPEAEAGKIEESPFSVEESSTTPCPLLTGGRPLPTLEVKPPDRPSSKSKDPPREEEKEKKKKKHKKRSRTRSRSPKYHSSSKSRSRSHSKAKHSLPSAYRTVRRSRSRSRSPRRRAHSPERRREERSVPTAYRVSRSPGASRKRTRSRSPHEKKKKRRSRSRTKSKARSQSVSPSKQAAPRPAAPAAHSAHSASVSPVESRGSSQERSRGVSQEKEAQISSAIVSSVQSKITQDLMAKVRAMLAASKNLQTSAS
UniProt O43765: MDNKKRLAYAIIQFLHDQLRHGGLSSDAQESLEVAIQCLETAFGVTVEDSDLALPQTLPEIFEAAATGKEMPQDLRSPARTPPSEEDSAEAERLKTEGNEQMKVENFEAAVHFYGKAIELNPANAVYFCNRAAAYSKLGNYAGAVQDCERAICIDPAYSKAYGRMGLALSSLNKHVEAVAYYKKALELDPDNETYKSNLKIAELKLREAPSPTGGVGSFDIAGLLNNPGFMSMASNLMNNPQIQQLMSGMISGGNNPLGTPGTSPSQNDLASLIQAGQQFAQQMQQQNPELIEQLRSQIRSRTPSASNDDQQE
UniProt Q86TU7: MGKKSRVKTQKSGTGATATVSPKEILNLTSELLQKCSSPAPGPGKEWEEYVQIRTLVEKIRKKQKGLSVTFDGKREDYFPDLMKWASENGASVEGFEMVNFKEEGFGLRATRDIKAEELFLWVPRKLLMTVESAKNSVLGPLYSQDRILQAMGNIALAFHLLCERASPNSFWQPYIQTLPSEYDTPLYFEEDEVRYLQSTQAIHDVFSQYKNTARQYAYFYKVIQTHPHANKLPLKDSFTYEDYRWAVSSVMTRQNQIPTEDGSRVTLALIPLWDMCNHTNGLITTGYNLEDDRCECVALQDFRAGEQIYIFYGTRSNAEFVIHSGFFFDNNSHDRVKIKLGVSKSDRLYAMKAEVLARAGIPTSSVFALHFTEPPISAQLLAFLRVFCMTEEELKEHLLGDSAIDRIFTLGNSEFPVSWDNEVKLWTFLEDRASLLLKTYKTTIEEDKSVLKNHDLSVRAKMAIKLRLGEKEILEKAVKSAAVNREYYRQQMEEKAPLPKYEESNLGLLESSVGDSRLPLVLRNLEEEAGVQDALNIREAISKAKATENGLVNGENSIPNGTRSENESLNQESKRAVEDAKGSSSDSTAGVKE
UniProt Q9UHD8: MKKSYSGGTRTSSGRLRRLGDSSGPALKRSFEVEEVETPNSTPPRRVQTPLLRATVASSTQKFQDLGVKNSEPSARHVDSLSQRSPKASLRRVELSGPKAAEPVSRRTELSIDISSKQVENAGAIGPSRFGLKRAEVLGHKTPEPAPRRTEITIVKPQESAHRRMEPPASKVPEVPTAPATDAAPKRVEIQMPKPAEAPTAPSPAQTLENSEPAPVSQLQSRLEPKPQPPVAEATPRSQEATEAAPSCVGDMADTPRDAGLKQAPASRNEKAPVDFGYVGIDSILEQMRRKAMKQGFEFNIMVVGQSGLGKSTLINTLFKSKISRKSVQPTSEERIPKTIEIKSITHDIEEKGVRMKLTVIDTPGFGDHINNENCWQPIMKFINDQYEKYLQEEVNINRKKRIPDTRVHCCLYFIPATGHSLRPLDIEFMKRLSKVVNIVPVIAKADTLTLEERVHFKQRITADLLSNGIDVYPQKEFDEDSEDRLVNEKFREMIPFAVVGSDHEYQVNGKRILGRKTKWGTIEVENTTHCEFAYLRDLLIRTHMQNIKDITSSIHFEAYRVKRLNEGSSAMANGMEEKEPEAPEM
UniProt Q9NP31, whole entry, looked up: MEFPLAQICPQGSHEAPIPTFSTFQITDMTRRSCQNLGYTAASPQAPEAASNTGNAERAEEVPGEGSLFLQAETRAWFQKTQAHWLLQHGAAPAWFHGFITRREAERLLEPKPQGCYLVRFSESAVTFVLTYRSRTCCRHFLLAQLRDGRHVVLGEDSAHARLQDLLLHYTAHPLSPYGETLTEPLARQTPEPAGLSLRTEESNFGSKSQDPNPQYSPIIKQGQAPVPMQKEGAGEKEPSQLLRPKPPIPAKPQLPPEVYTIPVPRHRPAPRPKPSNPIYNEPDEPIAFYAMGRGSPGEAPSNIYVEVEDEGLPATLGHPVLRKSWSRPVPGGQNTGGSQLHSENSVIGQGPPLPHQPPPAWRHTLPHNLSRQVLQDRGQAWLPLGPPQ
UniProt Q9BRV8: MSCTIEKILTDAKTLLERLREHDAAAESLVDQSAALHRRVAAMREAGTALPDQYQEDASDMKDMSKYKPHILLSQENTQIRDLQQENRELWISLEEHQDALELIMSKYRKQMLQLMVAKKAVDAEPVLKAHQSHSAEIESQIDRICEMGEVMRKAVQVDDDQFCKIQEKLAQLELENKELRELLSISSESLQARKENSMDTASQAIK
UniProt Q8NC51: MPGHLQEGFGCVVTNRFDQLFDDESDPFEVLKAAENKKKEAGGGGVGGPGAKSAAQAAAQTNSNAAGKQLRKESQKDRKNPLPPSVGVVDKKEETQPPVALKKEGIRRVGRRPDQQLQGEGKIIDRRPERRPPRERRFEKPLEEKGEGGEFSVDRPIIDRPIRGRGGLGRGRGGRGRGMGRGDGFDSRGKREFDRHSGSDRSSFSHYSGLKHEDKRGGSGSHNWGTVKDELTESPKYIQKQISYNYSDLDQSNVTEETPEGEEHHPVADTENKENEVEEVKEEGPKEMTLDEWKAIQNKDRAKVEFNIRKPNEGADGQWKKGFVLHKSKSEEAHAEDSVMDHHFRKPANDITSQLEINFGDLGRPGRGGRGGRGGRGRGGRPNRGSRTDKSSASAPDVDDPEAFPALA
UniProt O15047, whole entry, looked up: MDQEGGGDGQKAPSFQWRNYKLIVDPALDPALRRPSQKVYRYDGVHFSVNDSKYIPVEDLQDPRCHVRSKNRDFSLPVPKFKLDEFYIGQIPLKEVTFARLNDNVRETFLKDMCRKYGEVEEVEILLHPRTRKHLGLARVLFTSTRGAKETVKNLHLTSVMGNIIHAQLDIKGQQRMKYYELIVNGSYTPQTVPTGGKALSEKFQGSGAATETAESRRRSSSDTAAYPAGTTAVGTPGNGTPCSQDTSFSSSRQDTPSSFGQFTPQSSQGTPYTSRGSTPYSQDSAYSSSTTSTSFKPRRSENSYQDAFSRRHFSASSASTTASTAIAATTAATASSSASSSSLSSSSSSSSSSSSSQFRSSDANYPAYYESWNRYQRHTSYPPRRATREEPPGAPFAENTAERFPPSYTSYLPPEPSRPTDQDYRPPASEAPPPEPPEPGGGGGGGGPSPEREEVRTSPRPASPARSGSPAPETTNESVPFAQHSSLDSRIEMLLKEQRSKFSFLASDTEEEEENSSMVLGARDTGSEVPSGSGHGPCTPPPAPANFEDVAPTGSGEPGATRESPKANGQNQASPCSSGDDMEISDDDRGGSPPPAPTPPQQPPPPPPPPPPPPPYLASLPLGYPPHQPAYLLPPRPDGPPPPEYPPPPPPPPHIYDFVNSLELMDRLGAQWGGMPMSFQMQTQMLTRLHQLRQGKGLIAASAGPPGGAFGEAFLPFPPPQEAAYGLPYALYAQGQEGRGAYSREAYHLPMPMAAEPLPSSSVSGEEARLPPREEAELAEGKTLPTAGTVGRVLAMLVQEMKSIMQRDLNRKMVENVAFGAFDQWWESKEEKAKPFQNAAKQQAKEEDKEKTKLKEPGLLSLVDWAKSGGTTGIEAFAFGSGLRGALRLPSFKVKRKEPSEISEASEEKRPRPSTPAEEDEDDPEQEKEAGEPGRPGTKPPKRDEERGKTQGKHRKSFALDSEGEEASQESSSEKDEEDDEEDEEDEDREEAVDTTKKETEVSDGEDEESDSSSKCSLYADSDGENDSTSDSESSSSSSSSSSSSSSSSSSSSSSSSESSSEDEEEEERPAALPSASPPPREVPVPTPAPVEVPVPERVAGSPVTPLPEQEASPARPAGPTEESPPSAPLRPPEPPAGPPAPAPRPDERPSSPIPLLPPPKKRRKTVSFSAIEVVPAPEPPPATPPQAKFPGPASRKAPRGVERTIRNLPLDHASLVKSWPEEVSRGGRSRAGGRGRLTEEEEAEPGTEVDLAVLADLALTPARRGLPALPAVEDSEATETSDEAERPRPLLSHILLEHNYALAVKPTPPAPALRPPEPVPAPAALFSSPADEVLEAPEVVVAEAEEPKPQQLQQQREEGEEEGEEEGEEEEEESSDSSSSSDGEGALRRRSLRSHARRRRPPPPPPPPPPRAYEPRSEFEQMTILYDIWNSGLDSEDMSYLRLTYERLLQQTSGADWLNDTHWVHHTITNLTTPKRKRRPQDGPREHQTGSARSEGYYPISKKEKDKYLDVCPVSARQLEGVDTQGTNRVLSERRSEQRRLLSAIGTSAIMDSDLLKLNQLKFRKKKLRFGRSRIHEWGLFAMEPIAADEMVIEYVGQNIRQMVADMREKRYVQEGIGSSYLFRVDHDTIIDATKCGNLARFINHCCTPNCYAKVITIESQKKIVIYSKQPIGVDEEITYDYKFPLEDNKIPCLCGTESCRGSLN
UniProt Q9H299: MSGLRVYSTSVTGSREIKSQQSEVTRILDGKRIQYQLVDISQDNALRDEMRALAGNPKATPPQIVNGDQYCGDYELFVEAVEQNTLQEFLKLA
UniProt Q9Y3B4: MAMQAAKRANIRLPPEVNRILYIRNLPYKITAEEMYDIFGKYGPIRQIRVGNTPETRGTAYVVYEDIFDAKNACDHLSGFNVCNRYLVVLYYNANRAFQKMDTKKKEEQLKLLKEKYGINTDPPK
UniProt Q9Y3L3: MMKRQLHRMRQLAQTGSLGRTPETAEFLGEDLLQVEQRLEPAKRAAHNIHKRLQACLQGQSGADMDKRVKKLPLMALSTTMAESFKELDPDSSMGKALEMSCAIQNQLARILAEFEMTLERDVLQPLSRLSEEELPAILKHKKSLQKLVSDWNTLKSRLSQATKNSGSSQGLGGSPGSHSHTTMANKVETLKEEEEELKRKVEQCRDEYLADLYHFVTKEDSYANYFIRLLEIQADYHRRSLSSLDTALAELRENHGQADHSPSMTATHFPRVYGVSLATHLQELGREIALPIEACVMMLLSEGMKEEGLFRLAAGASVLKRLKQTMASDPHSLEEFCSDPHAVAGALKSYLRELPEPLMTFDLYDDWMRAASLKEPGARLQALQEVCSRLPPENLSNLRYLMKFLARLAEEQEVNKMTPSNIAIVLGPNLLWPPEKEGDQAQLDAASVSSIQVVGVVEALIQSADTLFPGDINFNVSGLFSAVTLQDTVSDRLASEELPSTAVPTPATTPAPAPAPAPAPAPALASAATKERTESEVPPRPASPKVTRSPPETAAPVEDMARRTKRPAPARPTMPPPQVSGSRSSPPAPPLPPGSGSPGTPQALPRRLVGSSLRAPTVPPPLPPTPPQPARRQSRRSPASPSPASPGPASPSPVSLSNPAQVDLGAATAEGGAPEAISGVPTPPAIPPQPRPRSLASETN
UniProt Q8IX90, whole entry, looked up: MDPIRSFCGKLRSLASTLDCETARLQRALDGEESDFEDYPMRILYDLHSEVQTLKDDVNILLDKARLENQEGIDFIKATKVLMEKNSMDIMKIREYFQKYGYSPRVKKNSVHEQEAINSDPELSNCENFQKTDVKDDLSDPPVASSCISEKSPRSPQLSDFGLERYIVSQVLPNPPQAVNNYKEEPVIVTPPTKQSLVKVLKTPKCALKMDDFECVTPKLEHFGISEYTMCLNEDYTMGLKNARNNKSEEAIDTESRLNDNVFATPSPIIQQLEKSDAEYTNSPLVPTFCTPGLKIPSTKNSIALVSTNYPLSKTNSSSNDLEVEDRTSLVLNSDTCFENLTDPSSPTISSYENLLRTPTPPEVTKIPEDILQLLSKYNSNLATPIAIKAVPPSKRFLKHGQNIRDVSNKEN

What follows are targets tested with C1=CC=C(C=C1)[C@H](COC2=CC3=C(C=C2)NC(=O)N3)NC(=O)C4=CC=CN(C4=O)CC5=CC(=C(C=C5)F)F (assay: log2 fold change, soluble protein after heating vs DMSO (PISA); higher = thermal stabilisation; K562 lysate, 10 uM; active = over 0.2 and 3.5 SD of the protein, either way, in both replicates (recomputed)).
Method in brief: (§1)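 Values give the log-two fold change in thermal stability against solvent controls, from duplicates. Crude K562 extract at 1 mg/mL protein, made by dounce homogenisation in PBS pH 7.4 with 1 mM MgCl2, was treated with 10 μM compound for 30 min. After 3 min heating across 48°C-58°C, aliquots were pooled, adjusted to 0.5% NP-40 at 4°C and centrifuged at 21,000xg for 90 min. The supernatant was measured by TMTpro 16plex LC-MS/MS with channel sums equalised.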

Target | log2 fold change
SF3B4 (UniProt Q15427) | inactive: 0.032
SHROOM1 (UniProt Q2M3G4) | inactive: 0.032
SFSWAP isoform 2 (UniProt Q12872) | inactive: 0.013
SESN2 (UniProt P58004) | inactive: -0.074
SH3BP5L (UniProt Q7L8J4) | inactive: 0.015
SKA1 (UniProt Q96BD8) | inactive: -0.03
SH3GL1 (UniProt Q99961) | inactive: 0.007
SGTA (UniProt O43765) | inactive: -0.024
SERPINB9 (UniProt P50453) | inactive: -0.007
SETD3 (UniProt Q86TU7) | inactive: 0.044
SEPTIN9 (UniProt Q9UHD8) | inactive: -0.007
SERPINI1 (UniProt Q99574) | inactive: 0.067
SLC12A6 (UniProt Q9UHW9) | inactive: 0.006
SHMT2 (UniProt P34897) | inactive: 0.014
SH2D2A isoform 2 (UniProt Q9NP31) | inactive: 0.111
SIKE1 (UniProt Q9BRV8) | inactive: 0.123
SIRT5 (UniProt Q9NXA8) | inactive: 0.006
SGPP1 (UniProt Q9BX95) | inactive: 0.093
SERBP1 (UniProt Q8NC51) | inactive: 0.027
SERINC1 (UniProt Q9NRX5) | inactive: 0.086

Target | log2 fold change
SHMT1 (UniProt P34896) | inactive: 0
SETD1A (UniProt O15047) | inactive: 0.017
SH3BGRL3 (UniProt Q9H299) | inactive: -0.015
SHPRH (UniProt Q149N8) | inactive: -0.109
SF3B3 (UniProt Q15393) | inactive: -0.013
SF3B6 (UniProt Q9Y3B4) | inactive: 0.052
SLC1A4 (UniProt P43007) | inactive: 0.03
SLC16A1 (UniProt P53985) | inactive: -0.015
SH3BP1 (UniProt Q9Y3L3) | inactive: 0.011
SF1 isoform 5 (UniProt Q15637) | inactive: 0.048
SF3A3 (UniProt Q12874) | inactive: -0.001
SERPINB1 (UniProt P30740) | inactive: -0.014
SHCBP1 (UniProt Q8NEM2) | inactive: 0.056
SERPINF1 (UniProt P36955) | inactive: 0.037
SF3B1 (UniProt O75533) | inactive: -0.004
SKA3 (UniProt Q8IX90) | inactive: -0.008
SIRT1 (UniProt Q96EB6) | inactive: 0.006
SFR1 isoform 2 (UniProt Q86XK3) | inactive: -0.035
SIDT2 isoform 2 (UniProt Q8NBJ9) | inactive: 0.038

These targets were tested with CC1=C(SC2=C1C(=N[C@H](C3=NN=C(N32)C)CC(=O)N)C4=CC=C(C=C4)Cl)C in the same assay as above.
Method in brief: as §1

Target | log2 fold change
SF3B4 (UniProt Q15427) | inactive: -0.074
SHROOM1 (UniProt Q2M3G4) | inactive: 0.013
SFSWAP isoform 2 (UniProt Q12872) | inactive: -0.068
SESN2 (UniProt P58004) | inactive: 0.01
SH3BP5L (UniProt Q7L8J4) | inactive: 0.015
SKA1 (UniProt Q96BD8) | inactive: 0.005
SH3GL1 (UniProt Q99961) | inactive: 0.016
SGTA (UniProt O43765) | inactive: -0.051
SERPINB9 (UniProt P50453) | inactive: 0.001
SETD3 (UniProt Q86TU7) | inactive: -0.008
SEPTIN9 (UniProt Q9UHD8) | inactive: 0.037
SERPINI1 (UniProt Q99574) | inactive: -0.033
SLC12A6 (UniProt Q9UHW9) | inactive: 0.017
SHMT2 (UniProt P34897) | inactive: 0.015
SH2D2A isoform 2 (UniProt Q9NP31) | inactive: 0.067
SIKE1 (UniProt Q9BRV8) | inactive: 0.007
SIRT5 (UniProt Q9NXA8) | inactive: 0.026
SGPP1 (UniProt Q9BX95) | inactive: 0.069
SERBP1 (UniProt Q8NC51) | inactive: -0.006
SERINC1 (UniProt Q9NRX5) | inactive: -0.059

Target | log2 fold change
SHMT1 (UniProt P34896) | inactive: -0.007
SETD1A (UniProt O15047) | inactive: -0.015
SH3BGRL3 (UniProt Q9H299) | inactive: -0.019
SHPRH (UniProt Q149N8) | inactive: -0.037
SF3B3 (UniProt Q15393) | inactive: 0.001
SF3B6 (UniProt Q9Y3B4) | inactive: -0.032
SLC1A4 (UniProt P43007) | inactive: -0.052
SLC16A1 (UniProt P53985) | inactive: 0.002
SH3BP1 (UniProt Q9Y3L3) | inactive: -0.009
SF1 isoform 5 (UniProt Q15637) | inactive: -0.005
SF3A3 (UniProt Q12874) | inactive: 0.031
SERPINB1 (UniProt P30740) | inactive: 0.039
SHCBP1 (UniProt Q8NEM2) | inactive: 0.012
SERPINF1 (UniProt P36955) | inactive: 0.112
SF3B1 (UniProt O75533) | inactive: 0.028
SKA3 (UniProt Q8IX90) | inactive: -0.002
SIRT1 (UniProt Q96EB6) | inactive: 0.045
SFR1 isoform 2 (UniProt Q86XK3) | inactive: -0.005
SIDT2 isoform 2 (UniProt Q8NBJ9) | inactive: 0.008
